From article PMC11839913
These are yes or no findings as the source states them, for the method shown. Binding seen in cells or lysates may run through a third protein. Some entries that bind do so weakly or less than the wild type.

The chains behind the UniProt entries cited, without tags or fusion partners.
UniProt P19096: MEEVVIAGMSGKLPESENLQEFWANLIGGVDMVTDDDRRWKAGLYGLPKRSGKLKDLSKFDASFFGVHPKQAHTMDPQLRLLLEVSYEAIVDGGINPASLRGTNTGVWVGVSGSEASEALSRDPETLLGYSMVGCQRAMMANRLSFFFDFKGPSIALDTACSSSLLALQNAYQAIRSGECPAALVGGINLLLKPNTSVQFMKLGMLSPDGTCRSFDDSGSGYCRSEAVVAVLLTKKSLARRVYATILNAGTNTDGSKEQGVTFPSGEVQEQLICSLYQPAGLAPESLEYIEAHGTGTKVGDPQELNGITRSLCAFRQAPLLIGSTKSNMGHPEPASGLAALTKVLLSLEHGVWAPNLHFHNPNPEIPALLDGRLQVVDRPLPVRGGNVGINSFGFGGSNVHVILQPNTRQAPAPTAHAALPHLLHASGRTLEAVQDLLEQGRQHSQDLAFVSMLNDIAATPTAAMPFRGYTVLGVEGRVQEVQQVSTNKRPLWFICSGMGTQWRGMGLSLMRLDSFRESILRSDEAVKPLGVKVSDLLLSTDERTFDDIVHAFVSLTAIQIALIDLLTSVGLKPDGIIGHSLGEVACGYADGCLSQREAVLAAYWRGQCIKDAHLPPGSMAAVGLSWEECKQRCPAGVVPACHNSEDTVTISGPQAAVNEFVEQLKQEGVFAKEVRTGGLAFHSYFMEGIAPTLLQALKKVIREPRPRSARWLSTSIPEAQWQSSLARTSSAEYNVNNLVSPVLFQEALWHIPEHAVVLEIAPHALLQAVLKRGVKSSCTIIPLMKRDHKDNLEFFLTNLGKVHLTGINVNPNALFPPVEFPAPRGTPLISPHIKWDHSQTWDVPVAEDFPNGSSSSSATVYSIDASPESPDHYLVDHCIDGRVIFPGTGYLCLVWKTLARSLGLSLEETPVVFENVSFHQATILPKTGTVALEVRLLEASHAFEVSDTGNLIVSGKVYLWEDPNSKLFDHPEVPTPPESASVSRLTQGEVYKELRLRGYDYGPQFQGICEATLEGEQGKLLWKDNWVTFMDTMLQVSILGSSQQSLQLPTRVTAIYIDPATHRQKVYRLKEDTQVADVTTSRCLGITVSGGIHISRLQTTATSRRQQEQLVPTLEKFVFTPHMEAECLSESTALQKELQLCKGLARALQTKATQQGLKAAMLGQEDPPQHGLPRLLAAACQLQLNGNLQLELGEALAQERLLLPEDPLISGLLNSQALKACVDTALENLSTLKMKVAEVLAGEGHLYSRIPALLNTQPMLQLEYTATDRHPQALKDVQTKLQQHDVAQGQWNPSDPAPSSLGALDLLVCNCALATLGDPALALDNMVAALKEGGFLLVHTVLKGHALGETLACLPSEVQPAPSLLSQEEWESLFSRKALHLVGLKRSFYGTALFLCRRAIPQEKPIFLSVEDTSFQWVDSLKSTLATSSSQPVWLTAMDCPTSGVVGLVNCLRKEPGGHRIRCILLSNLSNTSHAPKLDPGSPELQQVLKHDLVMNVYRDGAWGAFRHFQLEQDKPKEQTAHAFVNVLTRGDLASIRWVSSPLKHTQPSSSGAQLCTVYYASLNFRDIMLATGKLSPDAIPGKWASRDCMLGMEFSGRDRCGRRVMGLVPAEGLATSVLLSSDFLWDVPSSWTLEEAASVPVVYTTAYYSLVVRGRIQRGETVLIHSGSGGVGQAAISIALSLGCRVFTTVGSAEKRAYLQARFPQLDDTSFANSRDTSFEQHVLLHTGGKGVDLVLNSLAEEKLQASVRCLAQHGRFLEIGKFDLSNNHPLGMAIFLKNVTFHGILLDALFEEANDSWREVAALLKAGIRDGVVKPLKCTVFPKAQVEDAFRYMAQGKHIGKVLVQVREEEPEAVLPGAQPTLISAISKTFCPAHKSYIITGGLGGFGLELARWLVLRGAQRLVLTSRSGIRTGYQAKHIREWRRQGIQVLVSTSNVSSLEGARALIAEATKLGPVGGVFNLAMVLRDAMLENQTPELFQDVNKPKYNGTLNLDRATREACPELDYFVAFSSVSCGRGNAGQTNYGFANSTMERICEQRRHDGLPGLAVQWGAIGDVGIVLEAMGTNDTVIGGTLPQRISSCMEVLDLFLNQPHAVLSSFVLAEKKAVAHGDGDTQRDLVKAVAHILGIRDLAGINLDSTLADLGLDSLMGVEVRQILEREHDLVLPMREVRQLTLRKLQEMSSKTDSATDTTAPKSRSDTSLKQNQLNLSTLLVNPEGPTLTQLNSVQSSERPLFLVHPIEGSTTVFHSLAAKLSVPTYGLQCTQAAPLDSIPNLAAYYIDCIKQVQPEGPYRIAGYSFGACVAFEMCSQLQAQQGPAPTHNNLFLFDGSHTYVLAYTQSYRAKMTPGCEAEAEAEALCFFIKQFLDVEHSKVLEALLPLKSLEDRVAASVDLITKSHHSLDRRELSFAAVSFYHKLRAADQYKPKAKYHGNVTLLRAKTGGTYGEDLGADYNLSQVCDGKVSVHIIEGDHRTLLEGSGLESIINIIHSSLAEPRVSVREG

How the values were obtained:
[1] = target: endogenous R172H mutp53 (p53R172H/R172H MEFs) (mouse (endogenous in MEFs)) (UniProt P02340); assay: co-IP; endogenous FASN and p53 in cell lysates; anti-FASN (sc55580) and anti-p53 (sc126) antibodies, mouse IgG as negative control; Western blot
[2] = target: endogenous wild-type p53 (p53+/+ MEFs) (mouse (endogenous in MEFs)) (UniProt P02340); assay: as above

## endogenous FASN (mouse embryonic fibroblasts) (from UniProt P19096 1-2504) (enzyme)
[1]
  binding: binds
[2]
  binding: no binding
